According to PMC10449786:
These are yes or no findings as the source states them, for the method shown. Binding calls can cover weak binding; strength is not graded here. For some of these results: In cells and extracts the contact can be indirect.

Tests used:
[1] = target: T1, mouse serum amyloid A3 (SAA3) (mouse (endogenous in lung tissue)) (UniProt P04918); assay: co-IP; anti-SAA3 antibody immunoprecipitation of lung lysate from tumor-bearing (LLC) mice; lysis buffer 50 mM Hepes pH 7.4, 0.5% Triton X-100, 0.5% sodium cholate, 150 mM NaCl; western blot with anti-Fbg and anti-citrulline
T1 sequence: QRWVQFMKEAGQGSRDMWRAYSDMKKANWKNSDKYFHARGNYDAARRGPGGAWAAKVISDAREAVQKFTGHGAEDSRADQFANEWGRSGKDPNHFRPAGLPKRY

[2] = target: human fibrinogen (hFbg) (human); assay: SEC; Superdex 200 Increase 10/300 GL, 50 mM Hepes pH 7.7, 150 mM NaCl; hSAA1, hFbg, hCitFbg alone and mixed; Fbg peak fraction (fraction 4) analysed by western blot; both purified
[3] = target: human fibrinogen (hFbg) (human); assay: ELISA; Fbg or citrullinated Fbg coated (0.8 μg/mL in PBS, overnight 4 °C); recombinant SAA 10–2000 ng/mL added, 1 h at 37 °C; detected with anti-hSAA1; apparent Kd; both purified
[4] = target: human fibrinogen (hFbg) (human); assay: dynamic light scattering; 50 mM Hepes pH 7.7, 150 mM NaCl, 1 mg/mL; proteins mixed immediately before measurement; hFbg and hCitFbg with and without hSAA1; both purified

For mouse fibrinogen (complex), the binding [1] was “binds”.

B1: recombinant human serum amyloid A1 (hSAA1) (protein, UniProt P0DJI8 19-122)
chain: RSFFSFLGEAFDGARDMWRAYSDMREANYIGSDKYFHARGNYDAAKRGPGGAWAAEVITDARENIQRFFGHGAEDSLADQAANEWGRSGKDPNHFRPAGLPEKY
With B1 the binding [2] was “binds”, the binding [3] was “binds” and the binding [4] was “binds”.
